From paper PMC7954791, “MAGIs regulate aPKC to enable balanced distribution of intercellular tension for epithelial sheet homeostasis” (Communications Biology, 2021) come the findings set out here.

The assay has as its target T1, MAGI-3 (UniProt Q9EQJ9).
T1 sequence: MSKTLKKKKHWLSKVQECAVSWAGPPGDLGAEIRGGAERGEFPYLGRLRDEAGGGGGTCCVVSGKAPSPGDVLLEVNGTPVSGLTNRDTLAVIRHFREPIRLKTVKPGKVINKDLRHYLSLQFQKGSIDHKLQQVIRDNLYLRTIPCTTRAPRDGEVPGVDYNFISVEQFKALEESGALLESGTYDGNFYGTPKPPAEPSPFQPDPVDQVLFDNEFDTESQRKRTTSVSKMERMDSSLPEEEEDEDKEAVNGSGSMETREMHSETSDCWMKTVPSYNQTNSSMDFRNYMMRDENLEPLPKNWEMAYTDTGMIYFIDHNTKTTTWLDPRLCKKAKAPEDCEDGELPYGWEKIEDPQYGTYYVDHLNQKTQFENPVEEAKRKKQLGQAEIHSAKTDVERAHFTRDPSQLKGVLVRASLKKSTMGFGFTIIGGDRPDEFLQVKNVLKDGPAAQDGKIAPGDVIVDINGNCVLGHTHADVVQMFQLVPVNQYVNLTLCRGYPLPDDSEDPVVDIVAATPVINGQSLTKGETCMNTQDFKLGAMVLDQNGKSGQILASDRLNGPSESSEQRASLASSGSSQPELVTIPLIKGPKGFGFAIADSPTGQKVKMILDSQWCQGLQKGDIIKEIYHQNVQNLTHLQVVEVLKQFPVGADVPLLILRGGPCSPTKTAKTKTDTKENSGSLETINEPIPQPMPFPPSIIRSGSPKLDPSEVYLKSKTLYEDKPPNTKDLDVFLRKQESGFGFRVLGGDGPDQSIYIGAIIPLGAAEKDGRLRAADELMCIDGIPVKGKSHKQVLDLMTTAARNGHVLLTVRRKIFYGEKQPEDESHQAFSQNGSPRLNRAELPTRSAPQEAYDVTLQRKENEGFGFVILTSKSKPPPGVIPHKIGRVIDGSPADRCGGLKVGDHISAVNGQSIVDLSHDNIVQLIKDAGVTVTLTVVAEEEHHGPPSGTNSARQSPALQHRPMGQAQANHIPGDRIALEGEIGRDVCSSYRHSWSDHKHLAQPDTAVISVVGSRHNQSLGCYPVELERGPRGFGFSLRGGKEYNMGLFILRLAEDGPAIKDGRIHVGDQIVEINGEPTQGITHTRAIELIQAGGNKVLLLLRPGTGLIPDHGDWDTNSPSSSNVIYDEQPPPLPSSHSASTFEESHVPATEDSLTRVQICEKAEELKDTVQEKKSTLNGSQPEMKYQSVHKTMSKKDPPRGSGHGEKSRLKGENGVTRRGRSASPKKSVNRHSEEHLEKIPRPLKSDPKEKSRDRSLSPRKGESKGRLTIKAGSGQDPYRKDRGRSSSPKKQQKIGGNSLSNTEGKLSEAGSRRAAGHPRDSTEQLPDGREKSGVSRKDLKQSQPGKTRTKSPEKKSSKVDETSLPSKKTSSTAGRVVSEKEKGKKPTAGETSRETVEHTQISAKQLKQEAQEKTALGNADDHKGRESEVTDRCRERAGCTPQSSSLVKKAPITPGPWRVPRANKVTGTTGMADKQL
Kind of assay: co-IP; FLAG immunoprecipitation in a heterologous expression system; anti-DYKDDDDK mAb beads 2 h; 20 mM Tris-HCl pH 7.5, 150 mM NaCl, 1% Triton X-100; blots with anti-FLAG, anti-HA, anti-GFP.

These are yes or no findings as the source states them, for the method shown. In cells and extracts the contact can be indirect.

Take RASSF10 ΔPDZ (domain or fragment): the binding entry is “no binding”.
